The other results are listed elsewhere or left out.
Columns and labels:
Test in all cases: log2 fold change, soluble protein after heating vs DMSO (PISA); higher = thermal stabilisation; K562 lysate, 10 uM; active = over 0.2 and 3.5 SD of the protein, either way, in both replicates (recomputed)
[1] = compound: NCC(=O)Nc1ccc(-n2nc(C(F)(F)F)cc2-c2ccc3c(ccc4ccccc43)c2)cc1
Summary of the method: (§1)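 Pellets of K562 cells were dounce-homogenised in PBS pH 7.4 with 1 mM MgCl2, and the crude extract was held at 1 mg/mL protein for a 30 min treatment with 10 μM compound. Aliquots were heated for 3 min over 48°C-58°C and pooled before NP-40 was added to 0.5% at 4°C. The supernatant from 21,000xg for 90 min was quantified by TMTpro 16plex LC-MS/MS with channel sums equalised. Values are reported from duplicates as log-two fold change in thermal stability relative to solvent controls.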

By UniProt entry, the sequences of proteins in these tests, tags left out. Where a name states a change or a piece, a line headed by the entry shows the natural chain unless it says otherwise.
UniProt P58340: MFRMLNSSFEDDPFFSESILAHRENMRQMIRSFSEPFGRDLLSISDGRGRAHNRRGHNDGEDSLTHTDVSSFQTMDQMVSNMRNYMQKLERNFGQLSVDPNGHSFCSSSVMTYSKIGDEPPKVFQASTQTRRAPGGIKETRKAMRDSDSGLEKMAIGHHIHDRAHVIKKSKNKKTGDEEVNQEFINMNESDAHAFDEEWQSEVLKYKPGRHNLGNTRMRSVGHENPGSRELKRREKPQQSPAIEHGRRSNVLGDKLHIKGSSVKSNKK
UniProt Q567V2: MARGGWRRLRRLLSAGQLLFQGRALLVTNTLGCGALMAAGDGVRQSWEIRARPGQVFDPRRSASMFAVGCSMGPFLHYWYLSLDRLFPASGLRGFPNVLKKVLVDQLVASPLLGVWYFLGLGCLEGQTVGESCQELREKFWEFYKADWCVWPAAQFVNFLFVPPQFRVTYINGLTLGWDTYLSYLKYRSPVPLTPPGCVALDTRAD
UniProt P40692: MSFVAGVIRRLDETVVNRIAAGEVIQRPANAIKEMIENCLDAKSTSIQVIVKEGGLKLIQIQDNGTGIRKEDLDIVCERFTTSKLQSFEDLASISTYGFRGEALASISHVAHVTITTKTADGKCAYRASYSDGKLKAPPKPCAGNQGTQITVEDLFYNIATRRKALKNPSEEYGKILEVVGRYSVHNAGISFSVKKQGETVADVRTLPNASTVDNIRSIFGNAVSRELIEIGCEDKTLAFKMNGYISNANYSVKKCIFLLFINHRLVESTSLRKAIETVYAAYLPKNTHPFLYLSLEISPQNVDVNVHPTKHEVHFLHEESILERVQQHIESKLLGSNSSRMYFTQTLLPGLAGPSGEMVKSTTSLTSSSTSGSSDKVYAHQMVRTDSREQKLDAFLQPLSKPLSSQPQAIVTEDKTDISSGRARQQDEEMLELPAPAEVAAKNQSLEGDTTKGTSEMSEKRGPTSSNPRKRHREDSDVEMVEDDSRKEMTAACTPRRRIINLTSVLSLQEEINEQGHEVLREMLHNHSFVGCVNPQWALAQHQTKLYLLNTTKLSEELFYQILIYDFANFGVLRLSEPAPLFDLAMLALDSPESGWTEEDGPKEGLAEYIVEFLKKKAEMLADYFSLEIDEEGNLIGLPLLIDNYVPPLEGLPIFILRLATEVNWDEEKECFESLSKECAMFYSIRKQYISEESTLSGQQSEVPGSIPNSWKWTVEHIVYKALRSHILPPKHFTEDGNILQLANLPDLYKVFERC
UniProt O75352: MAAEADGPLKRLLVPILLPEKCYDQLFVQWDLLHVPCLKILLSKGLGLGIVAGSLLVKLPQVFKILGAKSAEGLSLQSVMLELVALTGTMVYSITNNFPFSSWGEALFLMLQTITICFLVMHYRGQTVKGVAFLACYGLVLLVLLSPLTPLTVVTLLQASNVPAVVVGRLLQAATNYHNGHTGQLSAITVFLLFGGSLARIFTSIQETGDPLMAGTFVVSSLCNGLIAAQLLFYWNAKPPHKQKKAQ
UniProt Q9HC36: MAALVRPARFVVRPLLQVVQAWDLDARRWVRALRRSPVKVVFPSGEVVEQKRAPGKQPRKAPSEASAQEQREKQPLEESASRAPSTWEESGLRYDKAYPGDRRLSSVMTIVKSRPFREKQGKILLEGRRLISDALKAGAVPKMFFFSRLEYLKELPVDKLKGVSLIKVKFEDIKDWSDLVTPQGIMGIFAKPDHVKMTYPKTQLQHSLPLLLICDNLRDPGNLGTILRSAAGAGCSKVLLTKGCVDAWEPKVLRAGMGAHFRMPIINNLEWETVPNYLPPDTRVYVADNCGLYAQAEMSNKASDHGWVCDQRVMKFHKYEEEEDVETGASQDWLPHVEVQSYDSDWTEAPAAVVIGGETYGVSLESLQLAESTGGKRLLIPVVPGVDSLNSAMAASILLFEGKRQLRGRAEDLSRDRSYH
UniProt Q96EY8: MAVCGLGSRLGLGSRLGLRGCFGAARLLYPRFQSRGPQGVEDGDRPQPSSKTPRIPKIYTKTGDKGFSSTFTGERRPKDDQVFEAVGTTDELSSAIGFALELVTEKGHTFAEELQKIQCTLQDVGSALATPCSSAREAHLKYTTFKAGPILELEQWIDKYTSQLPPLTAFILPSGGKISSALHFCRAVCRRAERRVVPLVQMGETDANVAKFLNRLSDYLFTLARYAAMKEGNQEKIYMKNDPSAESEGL
UniProt Q5TGZ0: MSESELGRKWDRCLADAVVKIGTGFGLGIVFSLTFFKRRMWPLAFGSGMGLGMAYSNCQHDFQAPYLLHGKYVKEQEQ
UniProt Q7Z3U7: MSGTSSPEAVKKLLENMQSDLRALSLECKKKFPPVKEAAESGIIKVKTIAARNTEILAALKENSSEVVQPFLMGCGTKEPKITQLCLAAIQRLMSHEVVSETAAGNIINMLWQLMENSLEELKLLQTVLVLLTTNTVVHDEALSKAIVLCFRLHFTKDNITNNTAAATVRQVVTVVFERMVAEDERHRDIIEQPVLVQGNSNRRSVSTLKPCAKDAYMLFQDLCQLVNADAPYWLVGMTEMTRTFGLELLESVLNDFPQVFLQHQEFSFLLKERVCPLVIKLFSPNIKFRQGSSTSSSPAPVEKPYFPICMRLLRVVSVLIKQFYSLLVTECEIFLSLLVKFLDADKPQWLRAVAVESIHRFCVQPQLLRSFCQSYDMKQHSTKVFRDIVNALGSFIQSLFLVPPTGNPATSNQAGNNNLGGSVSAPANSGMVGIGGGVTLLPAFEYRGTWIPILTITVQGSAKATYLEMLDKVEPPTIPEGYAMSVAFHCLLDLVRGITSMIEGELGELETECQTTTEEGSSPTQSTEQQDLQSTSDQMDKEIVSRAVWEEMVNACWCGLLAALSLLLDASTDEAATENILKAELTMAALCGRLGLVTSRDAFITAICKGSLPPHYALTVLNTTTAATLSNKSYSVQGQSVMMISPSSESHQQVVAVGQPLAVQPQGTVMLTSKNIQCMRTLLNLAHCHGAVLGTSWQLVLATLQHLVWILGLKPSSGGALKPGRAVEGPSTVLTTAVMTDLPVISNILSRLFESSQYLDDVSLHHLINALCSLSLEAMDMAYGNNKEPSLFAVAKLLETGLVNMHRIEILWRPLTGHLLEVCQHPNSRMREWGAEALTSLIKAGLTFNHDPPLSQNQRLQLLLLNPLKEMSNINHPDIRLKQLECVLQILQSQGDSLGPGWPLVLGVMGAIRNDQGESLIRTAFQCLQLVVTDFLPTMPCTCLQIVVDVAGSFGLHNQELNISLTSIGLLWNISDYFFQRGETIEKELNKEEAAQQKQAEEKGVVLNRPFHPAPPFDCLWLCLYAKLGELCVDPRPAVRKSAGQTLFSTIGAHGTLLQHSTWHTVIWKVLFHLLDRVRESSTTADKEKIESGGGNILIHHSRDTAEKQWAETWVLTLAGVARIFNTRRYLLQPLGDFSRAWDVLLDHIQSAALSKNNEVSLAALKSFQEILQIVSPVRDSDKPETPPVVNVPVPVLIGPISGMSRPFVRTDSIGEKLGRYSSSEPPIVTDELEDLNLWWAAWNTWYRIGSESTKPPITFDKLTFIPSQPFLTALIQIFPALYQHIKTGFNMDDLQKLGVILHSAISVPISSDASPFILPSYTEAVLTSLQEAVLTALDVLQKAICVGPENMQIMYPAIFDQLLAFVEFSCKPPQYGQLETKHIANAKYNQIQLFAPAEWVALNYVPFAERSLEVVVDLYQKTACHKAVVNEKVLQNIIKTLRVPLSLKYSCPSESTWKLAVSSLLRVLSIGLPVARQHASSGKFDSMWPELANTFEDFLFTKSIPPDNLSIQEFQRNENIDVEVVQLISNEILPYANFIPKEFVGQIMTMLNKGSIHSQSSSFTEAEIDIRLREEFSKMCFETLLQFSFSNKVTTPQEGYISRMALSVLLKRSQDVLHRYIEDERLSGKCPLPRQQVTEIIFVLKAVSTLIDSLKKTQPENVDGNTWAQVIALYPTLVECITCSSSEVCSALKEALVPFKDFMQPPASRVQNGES
UniProt Q9NQG6: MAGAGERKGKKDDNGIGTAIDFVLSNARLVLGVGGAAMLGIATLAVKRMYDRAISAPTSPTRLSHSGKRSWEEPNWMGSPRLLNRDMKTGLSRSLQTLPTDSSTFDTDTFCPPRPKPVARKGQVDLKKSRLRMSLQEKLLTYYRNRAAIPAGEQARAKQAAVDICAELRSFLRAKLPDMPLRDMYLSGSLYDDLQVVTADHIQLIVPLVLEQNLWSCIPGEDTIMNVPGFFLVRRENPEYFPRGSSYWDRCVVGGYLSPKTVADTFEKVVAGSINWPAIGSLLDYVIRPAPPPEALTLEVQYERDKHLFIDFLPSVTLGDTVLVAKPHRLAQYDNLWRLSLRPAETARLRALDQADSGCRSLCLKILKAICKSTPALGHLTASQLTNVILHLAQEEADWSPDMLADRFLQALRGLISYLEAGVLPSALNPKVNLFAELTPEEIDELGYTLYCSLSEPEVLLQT
UniProt Q6IN84: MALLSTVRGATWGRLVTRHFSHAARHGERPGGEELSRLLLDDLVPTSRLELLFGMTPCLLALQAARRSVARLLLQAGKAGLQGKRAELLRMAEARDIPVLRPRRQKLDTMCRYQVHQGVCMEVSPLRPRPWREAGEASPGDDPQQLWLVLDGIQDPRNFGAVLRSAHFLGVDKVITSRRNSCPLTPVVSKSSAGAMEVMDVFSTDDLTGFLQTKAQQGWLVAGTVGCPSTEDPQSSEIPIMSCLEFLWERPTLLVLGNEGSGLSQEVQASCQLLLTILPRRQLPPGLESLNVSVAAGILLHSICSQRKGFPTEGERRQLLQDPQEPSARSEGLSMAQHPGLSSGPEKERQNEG
UniProt Q8WV92, whole entry, looked up: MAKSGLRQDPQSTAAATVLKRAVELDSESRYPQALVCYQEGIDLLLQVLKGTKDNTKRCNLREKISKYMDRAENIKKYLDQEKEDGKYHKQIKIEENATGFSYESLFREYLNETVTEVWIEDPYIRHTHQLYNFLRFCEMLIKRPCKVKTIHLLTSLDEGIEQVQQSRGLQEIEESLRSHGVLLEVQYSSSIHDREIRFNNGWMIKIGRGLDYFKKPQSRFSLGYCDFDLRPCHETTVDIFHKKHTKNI
UniProt Q9UHC7: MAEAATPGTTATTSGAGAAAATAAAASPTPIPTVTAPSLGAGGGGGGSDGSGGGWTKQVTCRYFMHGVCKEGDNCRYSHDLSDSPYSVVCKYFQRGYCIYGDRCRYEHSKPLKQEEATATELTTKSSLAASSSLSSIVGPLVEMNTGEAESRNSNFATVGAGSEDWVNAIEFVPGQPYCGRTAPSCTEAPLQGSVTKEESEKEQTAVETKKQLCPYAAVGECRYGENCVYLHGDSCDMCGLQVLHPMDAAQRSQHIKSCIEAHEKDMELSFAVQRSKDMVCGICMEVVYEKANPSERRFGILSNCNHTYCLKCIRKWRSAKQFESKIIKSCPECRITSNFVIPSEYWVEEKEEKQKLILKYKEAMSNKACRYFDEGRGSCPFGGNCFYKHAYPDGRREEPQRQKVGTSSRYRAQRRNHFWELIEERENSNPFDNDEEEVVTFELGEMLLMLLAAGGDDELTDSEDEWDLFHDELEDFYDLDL
UniProt Q9BUB5: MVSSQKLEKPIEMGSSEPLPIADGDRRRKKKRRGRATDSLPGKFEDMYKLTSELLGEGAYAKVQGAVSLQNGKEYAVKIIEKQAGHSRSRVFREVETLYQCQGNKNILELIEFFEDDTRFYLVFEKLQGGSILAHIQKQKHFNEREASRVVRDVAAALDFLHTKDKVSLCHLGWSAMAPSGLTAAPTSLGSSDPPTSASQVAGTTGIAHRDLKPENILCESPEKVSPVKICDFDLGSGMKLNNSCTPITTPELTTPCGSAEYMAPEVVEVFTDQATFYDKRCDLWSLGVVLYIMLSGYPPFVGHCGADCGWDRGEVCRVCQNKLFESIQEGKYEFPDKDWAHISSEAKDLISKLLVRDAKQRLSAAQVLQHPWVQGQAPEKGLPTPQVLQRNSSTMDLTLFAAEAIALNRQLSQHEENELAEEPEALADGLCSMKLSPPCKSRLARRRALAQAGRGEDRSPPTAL
UniProt Q00013: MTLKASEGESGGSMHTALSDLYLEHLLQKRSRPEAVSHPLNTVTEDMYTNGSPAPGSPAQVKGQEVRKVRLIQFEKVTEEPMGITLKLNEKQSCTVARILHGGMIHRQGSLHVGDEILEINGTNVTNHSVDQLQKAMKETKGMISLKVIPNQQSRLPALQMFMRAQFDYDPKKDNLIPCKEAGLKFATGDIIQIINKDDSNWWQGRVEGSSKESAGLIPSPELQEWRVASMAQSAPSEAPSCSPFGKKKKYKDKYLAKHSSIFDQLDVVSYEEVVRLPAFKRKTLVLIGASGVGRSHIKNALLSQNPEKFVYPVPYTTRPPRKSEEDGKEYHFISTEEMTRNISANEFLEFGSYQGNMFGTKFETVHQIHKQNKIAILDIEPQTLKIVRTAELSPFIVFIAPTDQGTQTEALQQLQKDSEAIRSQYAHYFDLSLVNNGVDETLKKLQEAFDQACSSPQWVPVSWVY
UniProt Q5XKP0: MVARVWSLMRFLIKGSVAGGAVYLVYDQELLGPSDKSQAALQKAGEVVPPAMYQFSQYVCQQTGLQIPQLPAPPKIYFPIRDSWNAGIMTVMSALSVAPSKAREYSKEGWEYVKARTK

vorinostat = compound: O=C(CCCCCCC(=O)Nc1ccccc1)NO [vorinostat]
Summary of the method: as §1

silmitasertib = compound: O=C(O)c1ccc2c(c1)nc(Nc1cccc(Cl)c1)c1ccncc12 [silmitasertib]
Summary of the method: as §1

[2] = compound: O=C1NC(=O)C(c2cnc3ccccn23)=C1c1cn2c3c(cc(F)cc13)CN(C(=O)N1CCCCC1)CC2
Summary of the method: as §1

entospletinib = compound: c1cn2cc(-c3ccc4cn[nH]c4c3)nc(Nc3ccc(N4CCOCC4)cc3)c2n1 [entospletinib]
Summary of the method: as §1

Row | Target | log2 fold change [1] | log2 fold change (vorinostat) | log2 fold change (silmitasertib) | log2 fold change [2] | log2 fold change (entospletinib)
1 | MOV10 (UniProt Q9HCE1) | inactive: 0.013 | inactive: 0.066 | inactive: -0.009 | inactive: -0.001 | inactive: 0.007
2 | MGST2 (UniProt Q99735) | inactive: 0.034 | inactive: 0.117 | inactive: 0.083 | inactive: 0.003 | inactive: -0.05
3 | MIS18A (UniProt Q9NYP9) | inactive: -0.036 | inactive: -0.206 | inactive: 0.025 | inactive: -0.008 | inactive: 0.024
4 | MPHOSPH6 (UniProt Q99547) | inactive: -0.009 | inactive: 0.09 | inactive: -0.027 | inactive: 0.013 | inactive: 0.002
5 | MLF1 isoform 3 (UniProt P58340) | inactive: 0.026 |  |  |  | 
6 | MRGBP (UniProt Q9NV56) | inactive: -0.01 | inactive: -0.021 | inactive: 0.014 | inactive: -0.014 | inactive: 0.08
7 | MRPL12 (UniProt P52815) | inactive: -0.07 | inactive: 0.116 | inactive: -0.023 | inactive: 0 | inactive: -0.152
8 | MICAL2 (UniProt O94851) | inactive: -0.083 | inactive: -0.174 | inactive: 0.058 | inactive: -0.004 | 
9 | MRE11 isoform 3 (UniProt P49959) | inactive: 0.009 | inactive: 0.027 | inactive: 0 | inactive: 0.014 | inactive: -0.013
10 | MPHOSPH8 (UniProt Q99549) | inactive: -0.025 | inactive: -0.294 | inactive: -0.025 | inactive: 0.044 | inactive: 0.067
11 | MKRN3 (UniProt Q13064) | inactive: 0.045 | inactive: -0.123 | inactive: 0.206 | inactive: -0.008 | 
12 | MGAT5 (UniProt Q09328) | inactive: 0.054 | inactive: 0.139 | inactive: -0.014 | inactive: 0.013 | inactive: 0.063
13 | MICU2 (UniProt Q8IYU8) | inactive: 0.012 | inactive: -0.179 | inactive: 0.031 | inactive: -0.009 | inactive: -0.089
14 | MOGS (UniProt Q13724) | inactive: -0.011 | inactive: 0.094 | inactive: -0.005 | inactive: -0.011 | inactive: -0.016
15 | MRPL23 (UniProt Q16540) | inactive: -0.036 | inactive: 0.041 | inactive: 0.017 | inactive: 0.06 | inactive: -0.045
16 | MRFAP1 (UniProt Q9Y605) | inactive: -0.043 | inactive: 0.044 | inactive: 0.086 | inactive: 0.032 | inactive: 0.016
17 | MPV17L2 (UniProt Q567V2) | inactive: 0.028 | inactive: -0.109 | inactive: -0.044 | inactive: -0.104 | inactive: -0.032
18 | MINPP1 (UniProt Q9UNW1) | inactive: -0.034 | inactive: 0.147 | inactive: 0.022 | inactive: -0.041 | inactive: 0.017
19 | MRPL13 (UniProt Q9BYD1) | inactive: -0.027 | inactive: 0.149 | inactive: 0.018 | inactive: 0.004 | inactive: 0.016
20 | MLH1 (UniProt P40692) | inactive: 0.04 | active: -0.312 | inactive: 0.025 | inactive: 0.005 | inactive: 0.022
21 | MPDU1 (UniProt O75352) | inactive: -0.043 | inactive: 0 | inactive: -0.04 | inactive: 0.057 | inactive: 0.027
22 | MILR1 (UniProt Q7Z6M3) | inactive: -0.005 | inactive: -0.221 | inactive: 0.066 | inactive: 0.021 | inactive: -0.279
23 | MPG (UniProt P29372) | inactive: 0.043 | inactive: -0.048 | inactive: 0.05 | inactive: -0.021 | inactive: -0.035
24 | MICAL3 (UniProt Q7RTP6) | inactive: 0.023 | inactive: 0.001 | inactive: -0.006 | inactive: -0.019 | inactive: -0.02
25 | MGME1 (UniProt Q9BQP7) | inactive: -0.015 | inactive: 0.162 | inactive: -0.015 | inactive: -0.01 | inactive: -0.018
26 | MRM3 (UniProt Q9HC36) | inactive: -0.073 | inactive: 0.058 | inactive: -0.025 | inactive: 0.028 | inactive: -0.027
27 | MPP5 (UniProt Q8N3R9) | inactive: 0.015 | inactive: 0.016 | inactive: -0.1 | inactive: 0 | inactive: 0.013

Given as a markdown table: part of the list above

| Row | Target | log2 fold change [1] | log2 fold change (vorinostat) | log2 fold change (silmitasertib) | log2 fold change [2] | log2 fold change (entospletinib) |
| --- | --- | --- | --- | --- | --- | --- |
| 1 | MOV10 (UniProt Q9HCE1) | inactive: 0.013 | inactive: 0.066 | inactive: -0.009 | inactive: -0.001 | inactive: 0.007 |
| 4 | MPHOSPH6 (UniProt Q99547) | inactive: -0.009 | inactive: 0.09 | inactive: -0.027 | inactive: 0.013 | inactive: 0.002 |
| 6 | MRGBP (UniProt Q9NV56) | inactive: -0.01 | inactive: -0.021 | inactive: 0.014 | inactive: -0.014 | inactive: 0.08 |
| 8 | MICAL2 (UniProt O94851) | inactive: -0.083 | inactive: -0.174 | inactive: 0.058 | inactive: -0.004 |  |
| 9 | MRE11 isoform 3 (UniProt P49959) | inactive: 0.009 | inactive: 0.027 | inactive: 0 | inactive: 0.014 | inactive: -0.013 |
| 12 | MGAT5 (UniProt Q09328) | inactive: 0.054 | inactive: 0.139 | inactive: -0.014 | inactive: 0.013 | inactive: 0.063 |
| 15 | MRPL23 (UniProt Q16540) | inactive: -0.036 | inactive: 0.041 | inactive: 0.017 | inactive: 0.06 | inactive: -0.045 |
| 16 | MRFAP1 (UniProt Q9Y605) | inactive: -0.043 | inactive: 0.044 | inactive: 0.086 | inactive: 0.032 | inactive: 0.016 |
| 18 | MINPP1 (UniProt Q9UNW1) | inactive: -0.034 | inactive: 0.147 | inactive: 0.022 | inactive: -0.041 | inactive: 0.017 |
| 20 | MLH1 (UniProt P40692) | inactive: 0.04 | active: -0.312 | inactive: 0.025 | inactive: 0.005 | inactive: 0.022 |
| 23 | MPG (UniProt P29372) | inactive: 0.043 | inactive: -0.048 | inactive: 0.05 | inactive: -0.021 | inactive: -0.035 |
| 25 | MGME1 (UniProt Q9BQP7) | inactive: -0.015 | inactive: 0.162 | inactive: -0.015 | inactive: -0.01 | inactive: -0.018 |
| 26 | MRM3 (UniProt Q9HC36) | inactive: -0.073 | inactive: 0.058 | inactive: -0.025 | inactive: 0.028 | inactive: -0.027 |
| 27 | MPP5 (UniProt Q8N3R9) | inactive: 0.015 | inactive: 0.016 | inactive: -0.1 | inactive: 0 | inactive: 0.013 |

The results go on.

Row | Target | log2 fold change [1] | log2 fold change (vorinostat) | log2 fold change (silmitasertib) | log2 fold change [2] | log2 fold change (entospletinib)
28 | MOB4 (UniProt Q9Y3A3) | inactive: -0.028 | inactive: -0.011 | inactive: -0.015 | inactive: -0.006 | inactive: 0.059
29 | MMAB (UniProt Q96EY8) | inactive: -0.034 | inactive: 0.027 | inactive: -0.01 | inactive: -0.016 | inactive: 0.04
30 | MICOS10 (UniProt Q5TGZ0) | inactive: -0.15 | inactive: -0.025 | inactive: 0.045 | inactive: -0.014 | inactive: -0.066
31 | MON2 isoform 5 (UniProt Q7Z3U7) | inactive: 0.021 | active: -0.525 | inactive: 0.021 | inactive: 0 | inactive: 0.005
32 | MPI (UniProt P34949) | inactive: 0.013 | inactive: 0.049 | inactive: -0.047 | inactive: -0.007 | inactive: -0.017
33 | MLF2 (UniProt Q15773) | inactive: 0.021 | inactive: -0.12 | inactive: 0.02 | inactive: -0.061 | inactive: -0.05
34 | MIEF1 (UniProt Q9NQG6) | inactive: -0.006 | inactive: 0.058 | inactive: 0.024 | inactive: -0.028 | inactive: -0.024
35 | MITF (UniProt O75030) | inactive: -0.005 | inactive: -0.044 | inactive: 0.062 | inactive: 0.077 | inactive: 0.007
36 | MICAL1 isoform 4 (UniProt Q8TDZ2) | inactive: 0.011 | inactive: 0.04 | inactive: -0.051 | inactive: 0.064 | inactive: 0.05
37 | MRM1 (UniProt Q6IN84) | inactive: 0.012 | inactive: -0.036 | inactive: 0.086 | inactive: 0.019 | inactive: 0.047
38 | MIA2 (UniProt Q96PC5) | inactive: 0.054 | inactive: -0.014 | inactive: -0.064 | inactive: -0.038 | inactive: -0.062
39 | MPZL1 (UniProt O95297) | inactive: -0.059 | inactive: 0.022 | inactive: -0.004 | inactive: 0.021 | inactive: 0.017
40 | MPDZ (UniProt O75970) | inactive: 0.058 | active: -0.59 | inactive: 0.066 | inactive: 0.177 | inactive: -0.111
41 | MITD1 (UniProt Q8WV92) | inactive: 0.01 | active: 0.255 | inactive: -0.051 | inactive: -0.079 | inactive: -0.024
42 | MOSPD2 (UniProt Q8NHP6) | active: -0.364 | inactive: 0.039 | inactive: 0.071 | inactive: -0.02 | inactive: -0.074
43 | MIER3 isoform 2 (UniProt Q7Z3K6) | inactive: -0.044 | inactive: -0.226 | inactive: 0.01 | inactive: -0.022 | inactive: -0.017
44 | MIA3 (UniProt Q5JRA6) | inactive: 0.008 | inactive: -0.176 | inactive: -0.021 | inactive: -0.023 | inactive: -0.032
45 | MKRN1 (UniProt Q9UHC7) | inactive: 0.086 | inactive: -0.243 | inactive: 0.087 | inactive: -0.003 | inactive: -0.025
46 | MINK1 (UniProt Q8N4C8) | inactive: -0.02 | inactive: -0.205 | inactive: -0.109 | inactive: 0.043 | inactive: 0.182
47 | MID1IP1 (UniProt Q9NPA3) | inactive: 0 | inactive: -0.229 | inactive: -0.067 | inactive: 0.008 | inactive: 0.038
48 | MON1A (UniProt Q86VX9) | inactive: 0.074 | inactive: -0.138 | inactive: 0.05 | inactive: 0.022 | inactive: 0.053
49 | MIOS (UniProt Q9NXC5) | inactive: -0.013 | inactive: -0.018 | inactive: 0.012 | inactive: -0.009 | inactive: -0.011
50 | MKNK1 (UniProt Q9BUB5) | inactive: 0.022 | inactive: -0.056 | inactive: -0.001 | inactive: -0.012 | inactive: 0.021
51 | MRPL1 (UniProt Q9BYD6) | inactive: 0.038 | inactive: -0.107 | inactive: 0.038 | inactive: -0.001 | inactive: 0.005
52 | MPP1 (UniProt Q00013) | inactive: 0.012 | active: -0.297 | inactive: 0.02 | inactive: 0.024 | inactive: 0.007
53 | MICOS13 (UniProt Q5XKP0) | inactive: -0.063 | inactive: 0.083 | inactive: 0 | inactive: -0.004 | inactive: -0.009
54 | MKLN1 (UniProt Q9UL63) | inactive: 0.021 | inactive: -0.097 | inactive: 0.001 | inactive: 0.014 | inactive: 0.005
